This is one part of the list. These are further read-outs of the screen, such as a control signal, another cell line or another target. No call is given for them. The list favours compounds with an active or inconclusive main result. Potencies come from curve fits of mixed quality, noted in brackets.
Experiment: qHTS Assay for Lipid Storage Modulators in Drosophila S3 Cells;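 on cell number change: cells counted by Cell Tracker Red CMTPX staining in the red channel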
Conditions: BODIPY lipid droplet fluorescence, 18-24 h; for cell number change: measured here: cell count max response, cells fed with added oleic acid
Method in brief: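 Drosophila S3 cells loaded with oleic acid (400 uM, as added) and compounds at several concentrations; lipid droplets imaged by 488-nm laser-scanning cytometry, 500–530 nm intensity and object ratio to cell channel. Percent activity normalized to 20 uM Triacsin C.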

[1] = measured here: cell number channel AC50, cells fed with added oleic acid
[2] = measured here: lipid fluorescence (Fed channel) AC50, cells fed with added oleic acid

Row | SMILES | cell number change [%] | AC50 [1] | AC50 [2]
1 | COc1cc(/C=C(\C#N)C(=O)NCC2CCCO2)ccc1O (stereo not drawn) | -44.6 | 16.4 µM [falling, single point] | 
2 | CCOC(=O)c1cc(CC)sc1N1C(=O)CC(Sc2ccccc2C(=O)O)C1=O (stereo not drawn) | 21.8 |  | 29.1 µM [rising, partial curve, poor fit]
3 | COc1ccc(NC(=O)CSc2nnc(NC(=O)CN3CCOCC3)s2)cc1 | -6.12 |  | 
4 | Cn1nccc1C(=O)NC1CCCc2c1cnn2-c1ccc(F)cc1F (stereo not drawn) | -64.1 | 1.64 µM [falling, full curve] | 
5 | Cc1ccc(OCC(=O)NNC(=O)C(=O)NC(C)(C)C)cc1 | 15.7 |  | 6.51 µM [rising, single point]
6 | CCCc1[nH]nc2c1C(c1ccccc1OCC)C(C#N)=C(N)O2 (stereo not drawn) | 8.94 | 0.00366 µM [rising, full curve, poor fit] | 
7 | O=c1ccc(-c2ccc(S(=O)(=O)Nc3ccccc3Cl)o2)n[nH]1 | 3.44 | 6.51 µM [rising, single point] | 29.1 µM [rising, single point]
8 | O=C(/C(=C/c1ccc(Cl)cc1)c1nc2ccccc2[nH]1)c1ccccc1 | -24.6 |  | 18.4 µM [falling, single point]
9 | COc1ccc(CCNC(=O)CCNS(=O)(=O)c2cccc3nsnc23)cc1OC | 83.5 | 5.8 µM [rising, partial curve] | 8.2 µM [rising, partial curve]
10 | CCN1CCN(C(=O)c2cc3cc(F)ccc3[nH]2)CC1 | 27.5 |  | 29.1 µM [rising, single point]
11 | O=C(CCC(=O)c1ccccc1)NCc1cccc(C(F)(F)F)c1 | 5.76 |  | 
12 | CCCn1c(=O)c(C(=O)NCc2ccccc2OC)c(O)c2ccccc21 | 8.04 |  | 7.31 µM [rising, partial curve, poor fit]
13 | Cn1cc(C(=O)N/N=C/c2cccc(O)c2)ccc1=O | 87.5 |  | 
14 | N#CC(C#N)=CN=c1ccn(Cc2ccc(Cl)cc2Cl)cc1 | -19 |  | 0.259 µM [falling, full curve, poor fit]
15 | Cc1cc2cc(CN(Cc3cccs3)C(=S)NCc3ccco3)c(=O)[nH]c2cc1C | -0.599 |  | 0.058 µM [rising, full curve, poor fit]
16 | O=C(NC1CCCc2ccccc21)c1cc(Cl)ccn1 (stereo not drawn) | 15.4 |  | 
17 | CC(C)CN1CCN(C2CCN(C(C)C)CC2)C(CCO)C1 (stereo not drawn) | -14.4 |  | 7.31 µM [falling, partial curve, poor fit]
18 | CC(C)NC(=O)NC(=O)COC(=O)c1cc[n+]([O-])cc1 | 46.6 | 25.9 µM [rising, single point] | 
19 | CCOC(=O)CCc1c(C)c2ccc(OC(C)C(=O)OCC)c(C)c2oc1=O (stereo not drawn) | -33.9 | 29.1 µM [falling, single point] | 
20 | COc1ccc(OC)c(C(=O)COC(=O)c2ccc(C)o2)c1 | -35 | 29.1 µM [falling, single point] | 

Row | SMILES | cell number change [%] | AC50 [1] | AC50 [2]
21 | CC1CCN(C(=O)c2[nH]cnc2C(=O)NCc2ccccc2)CC1 | 15.1 | 2.06 µM [falling, single point] | 2.06 µM [falling, partial curve]
22 | C/C(=N\NC(=O)c1ccc(O)cc1)c1cc2ccccc2o1 | -10.2 |  | 0.0461 µM [rising, full curve, poor fit]
23 | CCOC(=O)c1cc2[nH]c3ccccc3c2[n+](-c2ccc([N+](=O)[O-])cc2)c1N | -12.2 | 0.326 µM [rising, partial curve, poor fit] | 
24 | Cn1cccc1C(NC(=O)c1ccccc1)C(Cl)(Cl)Cl (stereo not drawn) | -14.4 |  | 
25 | CC(=O)Nc1ccc(-n2cc(-c3ccccc3)[nH]c2=S)cc1 | 80.3 | 8.2 µM [rising, partial curve] | 
26 | CC1(C)CC2(CCO1)OC(=O)CC2C(=O)NCc1ccccc1 (stereo not drawn) | -38.4 | 0.58 µM [falling, full curve] | 
27 | COc1cccc(NC(=O)CN(C)C(C)C(=O)Nc2ccc(S(=O)(=O)N3CCCC3)cc2)c1 (stereo not drawn) | 26.6 |  | 
28 | COc1ccc(C(=O)NC(=S)NNC(=O)c2ccc(NC(=O)C(C)C)cc2)cc1 |  |  | 4.61 µM [falling, partial curve]
29 | CCOC(=O)C1CCCN(C(=O)c2cccc(S(=O)(=O)N3CCOCC3)c2)C1 (stereo not drawn) | 21.8 |  | 29.1 µM [rising, single point]
30 | Clc1ccc(CSc2nnnn2-c2ccc3c(c2)OCO3)c(Cl)c1 |  | 0.366 µM [rising, single point] | 0.231 µM [rising, full curve, poor fit]
31 | Cn1c(-c2ccsc2)c(-c2cccs2)c2cc(-c3ccc4cc[nH]c4c3)ccc21 | 18.2 |  | 0.103 µM [rising, full curve, poor fit]
32 | O=c1c2ccccc2sn1-c1cc(S(=O)(=O)N2CCOCC2)ccc1N1CCOCC1 | -86.5 | 3.66 µM [falling, full curve] | 4.11 µM [falling, full curve]
33 | O=C(N/N=C1\CC(c2ccccc2)Oc2ccccc21)c1ccccn1 (stereo not drawn) | 10.3 | 6.51 µM [rising, single point] | 
34 | C=CCN1C(=O)c2ccc(C(=O)N3CCN(S(=O)(=O)c4cccc([N+](=O)[O-])c4)CC3)cc2C1=O | -22.9 |  | 0.146 µM [rising, full curve, poor fit]
35 | O=C(Cn1c(NCCO)nc2ccccc21)c1ccc([N+](=O)[O-])cc1 | 16.2 |  | 
36 | CCOC(=O)C1CCCN(C(=O)c2ccccc2NC(=O)C2=C(C)OCCS2)C1 (stereo not drawn) | 15.6 |  | 5.8 µM [rising, partial curve]
37 | CCOC(=O)/C=C/c1cnn(-c2ccccc2)c1 | 31.2 | 2.06 µM [rising, full curve, poor fit] | 
38 | CCOc1nnc(C)c2c(C)n(-c3ccc(Cl)cc3)nc12 | -15.2 |  | 
39 | O=C(c1nn(Cc2ccccc2)c(=O)c2ccccc12)N1CCN(c2ccccn2)CC1 | -17.2 |  | 
40 | O=C1S/C(=C\c2ccccc2)C(=O)N1CC(O)Cn1c2ccccc2c2ccccc21 (stereo not drawn) |  |  | 1.46 µM [falling, partial curve, poor fit]

One compound at a time, as listed above:
CC1(C)CC2(CCO1)OC(=O)CC2C(=O)NCc1ccccc1 (stereo not drawn) in the list: cell number change [%]: -38.4; AC50 [1]: 0.58 µM [falling, full curve]
CC(=O)Nc1ccc(-n2cc(-c3ccccc3)[nH]c2=S)cc1 in the list: cell number change [%]: 80.3; AC50 [1]: 8.2 µM [rising, partial curve]
